Results as given in patent US20240209376A1, “Specific Oligonucleotide-Programmed Readthrough of Nonsense Codons” (UNIVERSITY OF MASSACHUSETTS, priority 2021, published 2024).
Some entries share one result that the patent states for a list of compounds. Some compounds share one range, which may span the group rather than tell each member.

These sequences were tested on CFTR premature stop codon (G542X; UGAC, UGAG) mRNA (assay: 511-565 CFTR nanoluciferase construct readthrough (RRL assay)). Conditions: TGAC premature stop codon; versus +4, +7, +9, +11, +14 positions.
Assay type: biochemical
Source text: FIG. 6 presents one embodiment of a cystic fibrosis gene/nanoluciferase expression construct (511-565 CFTR). Upper panel: A schematic of the construct showing the relative position of a premature stop codon (UGAG or UGAC) within a cystic fibrosis open reading frame (CFTR) and a luciferase gene with a natural terminal stop codon. Lower panel: A deoxyribonucleic acid sequence of the CFTR construct with a TGA premature stop codon and a deoxyribonucleic acid oligo hybridized to the CFTR construct at the +8 nucleotide position downstream of the premature stop codon.
In one embodiment, the present invention contemplates a modified cystic fibrosis transmembrane conductance regulator (CFTR) deoxyribonucleic acid (DNA) construct. In one embodiment, the modified CFTR DNA construct comprises a CFTR open reading frame comprising a premature TGA stop codon. In one embodiment, the TGA premature stop codon is a G542X mutation. In one embodiment, the modified CFTR DNA construct further comprises a nanoluciferase gene and a natural stop codon. In one embodiment, the modified CFTR mRNA construct molecule is hybridized to a single stranded DNA antisense oligo at the +8 nucleotide position downstream of a TGA premature stop codon. In one embodiment, the DNA antisense oligo is 5′-[…]-3′. See, FIG. 6.
A 511-565 CFTR DNA expression vector construct was designed with several different codon configurations: i) a single wild type sense codon (“GGAG”) and a subsequent wild-type stop codon; ii) a premature stop codon “TGAG” comprising a G542X mutation (e.g., a strong stop codon); and iii) a premature stop codon “TGAC” comprising a G542X mutation (a weak stop codon) rendering an artificial readthrough-prone context. […] See, FIG. 7.

Readthrough as compared to the other downstream positions, 4-5 fold:
TCCACTCAGTGTGATTCCAC (DNA, backbone and methylation of C not given here) [+8(47)]
ACTCAGTGTGATTCCAC (DNA, backbone and methylation of C not given here) [+8(34)]
CTCAGTGTGATTCCAC (DNA, backbone and methylation of C not given here) [+8(32)]
CTCGTTGACCTCCACTCAGTGTGATTCCAC (DNA, backbone and methylation of C not given here) [+8(66)]
